PMC6152987
Construct, isoform or probe ends are uncertain for at least one entry. For part of these data: No signal at the amounts used counts as a negative.

The chains behind the UniProt entries cited, without tags or fusion partners.
UniProt P08515, whole entry: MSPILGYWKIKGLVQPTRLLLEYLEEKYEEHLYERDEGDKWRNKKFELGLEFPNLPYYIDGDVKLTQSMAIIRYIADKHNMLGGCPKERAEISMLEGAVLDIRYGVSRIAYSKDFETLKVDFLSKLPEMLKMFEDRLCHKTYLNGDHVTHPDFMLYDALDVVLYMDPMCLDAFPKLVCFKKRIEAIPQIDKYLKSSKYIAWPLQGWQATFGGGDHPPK

Columns and labels:
GST = GST (UniProt P08515); assay: EMSA; conditions: poly(dI-dC); 20 mM HEPES pH 7.9, 1 mM EDTA, 2 mM MgCl2, 10% glycerol, 20 uM ZnCl2, 0.1 ug poly(dI-dC), 3 ug protein in 20 uL, 30 min on ice; 4% native PAGE, 0.5x TBE, 4 C; recombinant protein; label: 32P (5' by T4 PNK)
[1] = test system: GST-CBF-1 (Neurospora crassa); assay: EMSA; conditions: poly(dI-dC); 20 mM HEPES pH 7.9, 1 mM EDTA, 2 mM MgCl2, 10% glycerol, 20 uM ZnCl2, 0.1 ug poly(dI-dC), 3 ug protein in 20 uL, 30 min on ice; 4% native PAGE, 0.5x TBE, 4 C; recombinant protein; protein details: GST (N-terminal, pGEX-4T-1); label: 32P (5' by T4 PNK)
[2] = test system: GST-CBF-1 (Neurospora crassa); assay: competition with a labelled probe; conditions: unlabeled competitor vs labeled C-box, lower protein concentration; 20 mM HEPES pH 7.9, 1 mM EDTA, 2 mM MgCl2, 10% glycerol, 20 uM ZnCl2, 0.1 ug poly(dI-dC), 3 ug protein in 20 uL, 30 min on ice; 4% native PAGE, 0.5x TBE, 4 C; recombinant protein; protein details: GST (N-terminal, pGEX-4T-1)

Row | Sequence | binding result (GST) | binding result [1] | binding result [2]
1 | CGTCCTGATGCCGCTGCAAGACCGATGACGCTGCAAAATTGAGATCTA (double strand) [frq C-box probe (ACF57/ACF58)] | no binding | binds | 
2 | CGTCCTGATGCCGCTGCAAGACCGATGACGCTGCAAAATTGAGATCTA (double strand) [unlabeled C-box competitor] |  |  | binds
